The values that follow come from PMC5315234.

Test [1] has as its target T1, aquaporin-4 (mouse (endogenous in brain tissue)), P55088.
T1 chain: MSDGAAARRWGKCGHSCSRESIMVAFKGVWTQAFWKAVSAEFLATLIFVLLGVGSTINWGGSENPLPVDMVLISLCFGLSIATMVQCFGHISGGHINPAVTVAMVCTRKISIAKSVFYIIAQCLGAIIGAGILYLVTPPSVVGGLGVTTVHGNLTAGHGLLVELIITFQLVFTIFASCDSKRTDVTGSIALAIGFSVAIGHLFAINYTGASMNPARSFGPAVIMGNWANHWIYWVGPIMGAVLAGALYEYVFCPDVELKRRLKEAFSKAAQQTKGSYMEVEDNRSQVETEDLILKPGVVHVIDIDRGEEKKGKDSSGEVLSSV
Description: co-IP; whole brain homogenate (50 µg protein) of C57BL/6 and CD1 wild-type mice; 1% NP-40 substitute lysis buffer (50 mM Tris-HCl pH 8, 150 mM NaCl); anti-AQP4 or anti-GLT1 overnight at 4℃, protein A agarose beads 3 hr at 4℃; Western blot of precipitate and supernatant. The conditions noted are these: remark: other sources report otherwise.

Test [2] concerns the target T2, glutamate transporter-1 (mouse (endogenous in brain tissue)), P43006.
T2 chain: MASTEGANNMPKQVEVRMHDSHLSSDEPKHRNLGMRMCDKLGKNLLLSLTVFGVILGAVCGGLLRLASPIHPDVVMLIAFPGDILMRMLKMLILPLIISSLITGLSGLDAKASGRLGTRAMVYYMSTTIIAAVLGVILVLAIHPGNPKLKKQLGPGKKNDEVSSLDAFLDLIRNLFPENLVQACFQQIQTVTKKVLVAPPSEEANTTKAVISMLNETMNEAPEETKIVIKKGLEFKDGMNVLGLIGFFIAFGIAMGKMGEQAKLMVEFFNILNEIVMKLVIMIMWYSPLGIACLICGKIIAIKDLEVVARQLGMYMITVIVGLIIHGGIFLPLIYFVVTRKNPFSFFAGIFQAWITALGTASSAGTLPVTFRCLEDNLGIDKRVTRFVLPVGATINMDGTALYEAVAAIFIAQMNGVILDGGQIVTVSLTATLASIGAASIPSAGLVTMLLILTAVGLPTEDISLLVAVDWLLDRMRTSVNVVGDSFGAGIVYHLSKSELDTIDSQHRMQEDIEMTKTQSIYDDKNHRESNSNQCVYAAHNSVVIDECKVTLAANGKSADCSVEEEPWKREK
The description is as above. The settings on record: remark: other sources report otherwise.

These are yes or no findings as the source states them, for the method shown. Binding seen in cells or lysates may run through a third protein.

B1: glutamate transporter-1, P43006 1-572 (protein)
chain: MASTEGANNMPKQVEVRMHDSHLSSDEPKHRNLGMRMCDKLGKNLLLSLTVFGVILGAVCGGLLRLASPIHPDVVMLIAFPGDILMRMLKMLILPLIISSLITGLSGLDAKASGRLGTRAMVYYMSTTIIAAVLGVILVLAIHPGNPKLKKQLGPGKKNDEVSSLDAFLDLIRNLFPENLVQACFQQIQTVTKKVLVAPPSEEANTTKAVISMLNETMNEAPEETKIVIKKGLEFKDGMNVLGLIGFFIAFGIAMGKMGEQAKLMVEFFNILNEIVMKLVIMIMWYSPLGIACLICGKIIAIKDLEVVARQLGMYMITVIVGLIIHGGIFLPLIYFVVTRKNPFSFFAGIFQAWITALGTASSAGTLPVTFRCLEDNLGIDKRVTRFVLPVGATINMDGTALYEAVAAIFIAQMNGVILDGGQIVTVSLTATLASIGAASIPSAGLVTMLLILTAVGLPTEDISLLVAVDWLLDRMRTSVNVVGDSFGAGIVYHLSKSELDTIDSQHRMQEDIEMTKTQSIYDDKNHRESNSNQCVYAAHNSVVIDECKVTLAANGKSADCSVEEEPWKREK
Consider B1, for which, in test [1], the binding result is “no binding”.

B2: aquaporin-4, P55088 1-323 (protein)
chain: MSDGAAARRWGKCGHSCSRESIMVAFKGVWTQAFWKAVSAEFLATLIFVLLGVGSTINWGGSENPLPVDMVLISLCFGLSIATMVQCFGHISGGHINPAVTVAMVCTRKISIAKSVFYIIAQCLGAIIGAGILYLVTPPSVVGGLGVTTVHGNLTAGHGLLVELIITFQLVFTIFASCDSKRTDVTGSIALAIGFSVAIGHLFAINYTGASMNPARSFGPAVIMGNWANHWIYWVGPIMGAVLAGALYEYVFCPDVELKRRLKEAFSKAAQQTKGSYMEVEDNRSQVETEDLILKPGVVHVIDIDRGEEKKGKDSSGEVLSSV
For the molecule B2, the binding entry in test [2] is “no binding”.
